Data as given in article PMC7083051.
No constants are given. Whether binding was seen depends on the method and setting. In cells and extracts the contact can be indirect. Some results given as binding are weak or reduced against the parent protein; the word gives no strength.

Sequences of proteins named here, by UniProt entry; tags and fusion partners are left off.
UniProt Q8N6T7: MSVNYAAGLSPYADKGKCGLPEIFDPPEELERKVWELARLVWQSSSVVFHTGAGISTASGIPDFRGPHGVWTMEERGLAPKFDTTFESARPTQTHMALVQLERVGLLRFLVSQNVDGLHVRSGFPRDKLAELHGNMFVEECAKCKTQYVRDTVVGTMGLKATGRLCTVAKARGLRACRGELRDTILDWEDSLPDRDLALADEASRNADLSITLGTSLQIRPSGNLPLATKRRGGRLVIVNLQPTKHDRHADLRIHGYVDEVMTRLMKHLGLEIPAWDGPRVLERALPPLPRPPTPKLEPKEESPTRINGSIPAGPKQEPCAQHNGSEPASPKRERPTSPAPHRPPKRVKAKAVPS

Target: T1, PGC-1α (human (endogenous in HiBEC)) (UniProt Q9UBK2)
T1 sequence: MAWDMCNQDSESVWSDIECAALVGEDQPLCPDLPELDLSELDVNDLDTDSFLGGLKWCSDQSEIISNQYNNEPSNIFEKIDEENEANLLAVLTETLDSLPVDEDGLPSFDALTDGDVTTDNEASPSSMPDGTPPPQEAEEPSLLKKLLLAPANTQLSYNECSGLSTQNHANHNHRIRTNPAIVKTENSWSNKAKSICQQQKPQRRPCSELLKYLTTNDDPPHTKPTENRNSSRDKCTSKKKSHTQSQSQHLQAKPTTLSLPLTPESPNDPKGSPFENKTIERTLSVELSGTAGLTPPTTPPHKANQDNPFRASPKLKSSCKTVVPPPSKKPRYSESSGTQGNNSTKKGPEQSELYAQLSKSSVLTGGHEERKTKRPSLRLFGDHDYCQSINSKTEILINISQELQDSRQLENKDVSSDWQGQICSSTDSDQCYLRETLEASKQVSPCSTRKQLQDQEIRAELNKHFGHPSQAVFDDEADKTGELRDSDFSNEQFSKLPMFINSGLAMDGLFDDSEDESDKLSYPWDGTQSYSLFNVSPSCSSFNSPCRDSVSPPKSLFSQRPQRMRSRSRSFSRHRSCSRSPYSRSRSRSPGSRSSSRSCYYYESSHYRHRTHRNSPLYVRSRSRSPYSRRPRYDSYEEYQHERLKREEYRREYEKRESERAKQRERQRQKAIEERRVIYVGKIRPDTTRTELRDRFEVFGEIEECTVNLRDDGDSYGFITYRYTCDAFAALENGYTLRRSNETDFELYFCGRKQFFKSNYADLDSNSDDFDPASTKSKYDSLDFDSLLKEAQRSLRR
Test: co-IP; HiBEC total lysates (0.5% NP-40, 150 mM NaCl, pH 7.5); IP with antibody to Sirt6 or PGC-1α at 4 °C for 2 h, then protein A+G sepharose beads; immunoblot for PGC-1α and Sirt6; called the endogenous level

- binding: binds
Substance: Sirt6 (from UniProt Q8N6T7 1-355)
